Results deposited as PubChem BioAssay AID743454 (Peter MacCallum Cancer Centre, 2014).
Aim: 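Search for knock-downs that restore vorinostat killing in resistant colon cancer cells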 (primary screen). System: human HCT116-VR colon cancer cells, selected for vorinostat resistance. Reagent: siRNA pool against human genes, 40 nM siRNA pool. Time to read-out: vorinostat for 24 h, read-out about 72 h after transfection. Challenge: vorinostat at 2.5 µM final. Measured: 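Cell viability by CellTiter-Fluor and caspase 3/7 activity by luminescence, each scaled to mock wells per plate, duplicates averaged, then robust z-scored over all plates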. Reading the numbers: viability robust z-score: higher = more viable cells than screen typical; caspase robust z-score: higher = more caspase 3/7 activity than screen typical. Hit rule: 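a knock-down is a hit when classed RV1 or RV2 for lowered viability, or CA1 or CA2 for caspase activation; those lethal without drug were dropped; hits were retested singly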.
In all, the deposit lists about 18,000 reagents; this is an unselected part. 450 of them (2.5%) count as active. 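Single biological run; no consistent viability z cut-off exists, so the class columns, not z-scores, define the calls.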

| gene | viability hit class | caspase hit class | viability robust z-score | caspase robust z-score | call |
| --- | --- | --- | --- | --- | --- |
| ZC3HAV1L | no change | no change | -0.15 | -0.34 | inactive |
| MAP1LC3B | no change | no change | 0.15 | -0.48 | inactive |
| ADAM20 | no change | no change | 0.46 | -0.4 | inactive |
| BCL6 | no change | no change | 0.38 | -1.04 | inactive |
| EDA2R | no change | no change | 1.51 | -0.66 | inactive |
| PRKCD | no change | no change | -0.11 | -1.2 | inactive |
| IMMT | no change | no change | 1.07 | -0.69 | inactive |
| CCN1 | no change | no change | -0.24 | -0.85 | inactive |
| HIKESHI | no change | no change | -0.74 | -0.44 | inactive |
| ZCCHC7 | no change | no change | 0.08 | 4.68 | inactive |
| NKX6-3 | no change | CA2 (caspase activation) | -2.56 | 6.73 | active |
| NLRP13 | no change | no change | 0.66 | -0.74 | inactive |
| IFNA4 | no change | no change | 1.03 | -0.08 | inactive |
| GLYR1 | no change | no change | 0.36 | -0.04 | inactive |
| GOLT1A | no change | no change | -0.05 | 0.15 | inactive |
| TNC | no change | no change | -0.1 | -0.26 | inactive |
| METTL22 | no change | no change | 0.05 | 0.48 | inactive |
| RNF130 | no change | no change | 1.04 | 1.42 | inactive |
| YAE1 | no change | no change | 2.08 | 0.12 | inactive |
| TRPM2 | no change | no change | -0.07 | 0.23 | inactive |
| PSMC6 | no change | no change | -3.82 | -0.37 | inactive |
| SPTSSA | no change | no change | -0.01 | -0.32 | inactive |
| KRTDAP | no change | no change | 0.92 | 1.61 | inactive |
| RNF207 | no change | no change | 0.36 | -0.01 | inactive |
| CARD9 | no change | no change | 1.04 | 2.96 | inactive |
| SULT1E1 | no change | no change | 0.16 | -0.78 | inactive |
| STRA6 | no change | no change | 0.06 | -0.34 | inactive |
| SLCO6A1 | no change | no change | -0.59 | -0.32 | inactive |
| ATP6V0D2 | no change | no change | -0.52 | 1.31 | inactive |
| CAPN3 | no change | no change | -0.78 | -0.66 | inactive |
| ACSM4 | no change | no change | 0.87 | -0.52 | inactive |
| EWSR1 | no change | no change | 0.48 | 0.8 | inactive |
| CAPN15 | no change | no change | -0.96 | 1.57 | inactive |
| TRPM1 | no change | no change | -1.16 | 1.54 | inactive |
| SLC36A1 | no change | no change | -1.75 | 0.79 | inactive |
| GLUL | no change | no change | 1.62 | 0.84 | inactive |
| PSMC5 | no change | no change | -4.81 | 1.5 | inactive |
| SEPTIN14 | no change | no change | -0.96 | -0.98 | inactive |
| MRGPRX3 | no change | no change | 0.62 | 0.1 | inactive |

6 entries from above, reformatted:
gene | viability hit class | caspase hit class | viability robust z-score | caspase robust z-score | call
ACSM4 | no change | no change | 0.87 | -0.52 | inactive
EWSR1 | no change | no change | 0.48 | 0.8 | inactive
CAPN15 | no change | no change | -0.96 | 1.57 | inactive
TRPM1 | no change | no change | -1.16 | 1.54 | inactive
SLC36A1 | no change | no change | -1.75 | 0.79 | inactive
GLUL | no change | no change | 1.62 | 0.84 | inactive
